Molecular target: T1, DmBCA (Drosophila melanogaster, UniProt Q9VHJ5)
T1 construct: gene CAHbeta; C-terminal thrombin site and His6; baculovirus/Sf9, purified from culture supernatant; thrombin treatment to remove tag; 28/27 kDa before/after thrombin; dimer
T1 sequence (Q9VHJ5 1-255): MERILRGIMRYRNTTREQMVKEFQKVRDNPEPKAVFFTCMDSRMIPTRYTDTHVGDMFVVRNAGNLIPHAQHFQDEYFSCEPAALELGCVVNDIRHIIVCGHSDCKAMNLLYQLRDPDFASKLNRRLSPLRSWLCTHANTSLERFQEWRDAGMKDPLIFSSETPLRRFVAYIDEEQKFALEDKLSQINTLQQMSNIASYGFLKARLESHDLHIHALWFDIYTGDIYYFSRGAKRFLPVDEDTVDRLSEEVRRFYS
Assay: stopped-flow CO2 hydration assay
Assay type: biochemical
Details: read-out: KI (nM)^c
Description: stopped-flow CO2 hydration assay on DmBCA

Ki: 49 nM
Compound: CC(=O)Nc1nnc(S(N)(=O)=O)s1 [acetazolamide, 5-acetamido-1,3,4-thiadiazole-2-sulfonamide]
